## Library screening results

Protein sequences, listed by entry. Tags and fused reporters are not part of them.
UniProt E9BF75, entry or part of it: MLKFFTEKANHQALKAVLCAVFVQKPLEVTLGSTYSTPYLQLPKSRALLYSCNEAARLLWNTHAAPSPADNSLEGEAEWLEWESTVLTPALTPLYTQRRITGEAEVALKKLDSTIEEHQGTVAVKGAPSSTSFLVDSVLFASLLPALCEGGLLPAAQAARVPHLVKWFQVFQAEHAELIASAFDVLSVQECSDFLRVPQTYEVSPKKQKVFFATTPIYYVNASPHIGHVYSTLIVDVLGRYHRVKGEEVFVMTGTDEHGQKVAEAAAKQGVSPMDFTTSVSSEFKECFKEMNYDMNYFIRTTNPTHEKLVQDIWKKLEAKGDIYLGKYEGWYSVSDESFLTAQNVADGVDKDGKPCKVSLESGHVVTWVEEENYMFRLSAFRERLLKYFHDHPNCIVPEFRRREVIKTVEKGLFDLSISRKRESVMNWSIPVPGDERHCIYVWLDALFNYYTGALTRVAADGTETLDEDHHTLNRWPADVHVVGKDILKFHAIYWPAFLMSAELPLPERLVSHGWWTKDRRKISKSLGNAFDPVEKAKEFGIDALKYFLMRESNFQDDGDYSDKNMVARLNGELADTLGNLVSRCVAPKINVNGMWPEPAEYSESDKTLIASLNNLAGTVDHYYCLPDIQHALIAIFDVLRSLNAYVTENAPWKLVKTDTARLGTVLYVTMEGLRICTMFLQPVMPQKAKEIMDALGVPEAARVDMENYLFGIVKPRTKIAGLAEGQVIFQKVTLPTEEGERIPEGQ

Results are percentages, as filed.
The record does not define 0% and 100%; most values in the screen are far below 50% and negative numbers occur (in some assays of this library far below -100).
This is an unselected part of the compounds tested.
A dash means the value is not listed here; it may have been measured.

A: 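Assay on Mycobacterium tuberculosis, filed only as a heat shock assay from Cornell; the read-out is not stated. The concentration is filed as 10 mM, unlikely as a test dose, so the dose is not known. The record gives no direction; compounds that gave an IC50 in retests scored well above the rest, so higher reads as stronger inhibition. About 69,000 compounds were tested under these conditions; 1.4% (about 930) showed 50% or more at least once.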
B: 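Primary screen of methionyl-tRNA synthetase; the read-out is not stated. Target: Methionyl-tRNA synthetase (putative), Leishmania donovani (UniProt E9BF75). The test concentration is not given. The values are filed as inhibition. Of about 68,000 compounds tested this way, about 24 (0.035%) reached 50% or more in at least one test.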
C: 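Whole-cell assay for inhibitors of Mycobacterium tuberculosis growth, labelled Cornell in the record; the read-out is not stated. The concentration is filed as 10 mM, unlikely as a test dose, so the dose is not known. Higher means stronger inhibition (inferred from two other growth screens of the library). Size under these conditions: about 53,000 compounds, about 900 of them at 50% or above in at least one test.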

compound,A,B,C
Cl.O=C(CN1CCCC1=O)N1CCC(O)(Cn2ccc3ccncc32)CC1,9.776%,-,-27.11%
[H][C@@]12C[C@H](C(=O)NCC3CC3)CN(Cc3ccsc3)[C@]1([H])CCO2,-4.416%,-,-3.376%
O=C(O)C(F)(F)F.[H][C@]12CCN(c3ncccn3)[C@@]1([H])CCC(COCC(=O)N1CCCC1)O2 (stereo partly specified),-10.36%,-,3.908%
CCN(c1ccc(C(=O)NCCN2CCOCC2)cc1)S(=O)(=O)CC,-28.72%,9.632%,-0.5882%
O=C(c1c(O)cnc2ccccc12)N1CCCSCC1,-12.1%,12.32%,8.694%
[H][C@]12CCN(C(=O)c3cc(C)on3)CC[C@@]1([H])S(=O)(=O)N(CCC(C)C)C2,-7.878%,-,19.79%
Cc1nn(C)c(C)c1CN(C)c1nc(C2CC2)nc2c(C)nn(C)c12,7.436%,9.309%,-19.02%
C[C@@H]1CN(CC(C)(C)N2CCCCC2)C[C@@]1(O)C1CC1,-12.31%,5.861%,-
CCCc1n[nH]c(C2CN(Cc3nnc(C4CCC4)o3)CCO2)n1 (stereo unspecified),-17.47%,19.44%,-
CCOCc1cncc2c1CCN(S(=O)(=O)c1ccccc1)C2,-16.69%,17.77%,-26.19%
O=C(O)C(F)(F)F.O=C(O)C(F)(F)F.[H][C@@]12CCN(Cc3cccs3)C[C@@]1([H])O[C@H](C(=O)Nc1cccnc1C)C2,-4.146%,-,29.94%
COCCc1noc(CN2CCCCC2Cn2nc(C)cc2C)n1 (stereo unspecified),-10.17%,7.317%,10.66%
c1cncc(CN2CCN3C[C@H](Oc4cncnc4)C[C@H]3C2)c1,-,16.1%,-
CCCN(CC)Cn1ncc2cn(-c3ccccc3)nc2c1=O,-5.739%,12.33%,-
Cc1nn(CCC(=O)N2CCN(Cc3cnn(C)c3C)CC2)c(C)c1Br,5.402%,-21.51%,-3.47%
CCNc1ncc(CN2C[C@H](C3CC3)[C@@H](N)C2)cn1,-5.609%,4.177%,9.911%
COc1cccc2c1ccn2CCNC(=O)CCNc1ncccn1,14.54%,17.27%,-13%
NC(CC1CCCC1)c1ccc(Oc2ccccc2)cc1 (stereo unspecified),102.8%,34.88%,105%
O=C(O)C(F)(F)F.[H][C@@]12CCN(C3CCC3)C[C@]1([H])OCCN(Cc1ccc(OC)cc1)C2=O,-11.25%,-,-2.835%
CC1(C)CNC(=O)c2nc(CCN3CCC(C(N)=O)CC3)[nH]c2C1,8.362%,12.97%,9.56%
Cc1sc(CN)nc1-c1ccccc1,3.732%,14.01%,20.55%
CC(C)CCC(=O)NCC(=O)N1CCCCCC1c1ccco1 (stereo unspecified),23.45%,8.075%,-
CC(C)N(CC(=O)O)Cc1cccc(Br)c1.Cl,-1.256%,-,9.34%
CS(=O)(=O)N1CCN(c2ccc(Nc3ccccn3)nn2)CC1,12.28%,6.475%,4.234%
Cc1cccc(NC2CCN(C(=O)Nc3ccc(F)c(F)c3)CC2)n1,22.38%,11.67%,108.1%
Cc1noc2nc(C3CC3)c(Cl)c(C(=O)O)c12,2.373%,13.44%,24.69%
CC(C)Nc1oc(-c2ccc(S(=O)(=O)N(C)C)o2)nc1C#N,-8.92%,7.317%,-45.52%
O=C(c1cc(-c2cn[nH]c2)nc2ccc(F)cc12)N1CCSCC1,-3.119%,5.59%,-
CNC(=O)C1(CCCc2ccncc2)CCN1 (stereo unspecified),-,14.12%,-
O=C(CCC(=O)c1cccs1)NC1(C(=O)NCC2CC2)CCCC1,-12%,5.249%,-
CC(CN1CCOCC1)NC(=O)c1cccc2cn[nH]c12 (stereo unspecified),4.293%,8.967%,-18.29%
CS(=O)(=O)N1C[C@@H]2CC[C@H](C1)N(C(=O)Cn1nc3ccccc3n1)C2,-,-2.405%,-
CC(C)Nc1ccnc(N2Cc3cnc(C(C)(C)C)nc3C2)n1,52.72%,5.556%,7.093%
O=C(c1ccc(N2CCOCC2)cc1)N1CCCC(n2ccnc2)C1 (stereo unspecified),9.897%,8.947%,-
CCc1n[nH]c(C(=O)NCCn2nccc2C)c1C,66.56%,17.72%,-14.26%
O=C(COc1ccc(-n2cccn2)nn1)N1CCCC1,4.97%,8.757%,-22.75%
Cc1ccc(-c2cn[nH]c2C2CCCN(c3cnccn3)C2)cc1 (stereo unspecified),-1.257%,23.6%,9.542%
[H][C@]12CC[C@]([H])(CN(C(=O)Cc3c(C)nc(C)[nH]c3=O)C1)N(CC=C(C)C)C2,23.41%,-,-
Cc1cc(S(C)(=O)=O)c(C)c(S(=O)(=O)N2CCN(C)CC2)c1,-10.5%,7.932%,-8.557%
Cn1ccnc1CN1CCc2onc(COCC3CC3)c2C1.O=C(O)C(F)(F)F,34.07%,-,5.672%
CC(O)c1cn(Cc2ccccc2)nn1 (stereo unspecified),16.28%,18.33%,-18.01%
COc1ccc2c(c1)[nH]c1c(N(C)CC3OCCO3)ncnc12,12.51%,5.263%,20.18%
CC(C)CN1CCN(C(=O)NCc2cccnc2-n2cccn2)CC1,-4.821%,10.49%,-
CC(C)(CN)NS(=O)(=O)c1c(F)cccc1F.Cl,-16.73%,-,12.17%
CC(C)(C)c1cnc(CNCC2CCCN2c2cccnn2)o1 (stereo unspecified),-26.2%,0.7092%,-8.855%
Cc1csc(CNCc2c(C)nn(C)c2N2CCOCC2)n1,-4.849%,13.11%,-
Cc1nc(C)n(CC2CCCN2Cc2ncc(-c3ccccc3)o2)n1 (stereo unspecified),13.89%,23.08%,27.1%
O=C(c1ccncc1F)N1CC[C@@H]2OC(COCC3CC3)CC[C@@H]21 (stereo partly specified),-,19.29%,-
N#CCCN(Cc1cccnc1)C(=O)c1ccc(-n2cnnn2)cc1,-1.359%,10.99%,-10.5%
COc1cc(C(=O)NCCc2ccc(Cl)cc2)on1,29.18%,11.51%,32.05%
CC(c1cccc(O)c1)N(C)S(N)(=O)=O (stereo unspecified),32.15%,1.773%,-19.44%
Cn1cnnc1C1CCCN(C(=O)CCc2ccc3c(c2)OCO3)C1 (stereo unspecified),-22.34%,-2.405%,-14.01%
CCOC(=O)Cn1cccc(S(=O)(=O)N2CCCC2)c1=O,-10.37%,13.03%,-3.641%
COCC[C@]1(O)CCN(Cc2nc(C)cs2)C[C@H]1C,-21.58%,4.556%,-15.54%
[H][C@]12CN(C(=O)c3cccnc3)C[C@@]1([H])OCCN(S(C)(=O)=O)C2,18.51%,-,-2.098%

Data taken from ChEMBL document CHEMBL3988442, “University of Dundee, Small-Polar-MMV Screening Library” (2021).